Results reported in patent US20240218022A1, “ANTI-VISTA MACROCYCLIC PEPTIDES AND COMPOSITIONS” (BRISTOL-MYERS SQUIBB COMPANY, priority 2022, published 2024).
Read-outs that look alike come from different tables or passages of the source. At least one structure is not confirmed: it was looked up by name or label, or the drawing left a doubt. Starred links: 1 amine or outer side, 2 acyl side, 3 side chain; linkers in the order of their positions; H or OH if unused. Positions of bridges follow the written chain, without caps; N, C: chain ends. Non-standard residues stand in square brackets, D forms with d. Residues, ends and D or L forms follow the SMILES beside them. ξ: configuration not given here. *: point of attachment. γGlu = O=C(O)[C@H](CCC(=O)[*:2])N[*:1]; 2Nal = N[C@@H](Cc1ccc2ccccc2c1)C(=O)O; βAsp = O=C(O)[C@H](CC(=O)[*:2])N[*:1]; Ala(cPr) = N[C@@H](CC1CC1)C(=O)O; Tic = O=C(O)[C@@H]1Cc2ccccc2CN1; Cit = NC(=O)NCCC[C@H](N)C(=O)O; NMeL = CN[C@@H](CC(C)C)C(=O)O; Ahp(2) = CCCCC[C@H](N)C(=O)O; NMeNle = CCCC[C@H](NC)C(=O)O; Tle = CC(C)(C)[C@H](N)C(=O)O; Carboxymethyl = O=C(O)C*; NHexGly = CCCCCCNCC(=O)O; Nle = CCCC[C@H](N)C(=O)O; Orn = NCCC[C@H](N)C(=O)O; Aun = NCCCCCCCCCCC(=O)O; ξHyp = O=C(O)C1CC(O)CN1; AEEA = NCCOCCOCC(=O)O; Sar = CNCC(=O)O

Biological target: T1, mouse VISTA (mVISTA) (Mus musculus, UniProt Q9D659)
T1 construct: expressed in transfected cells; host or cells: Human embryonic kidney 293T cells
T1 sequence (Q9D659 33-308): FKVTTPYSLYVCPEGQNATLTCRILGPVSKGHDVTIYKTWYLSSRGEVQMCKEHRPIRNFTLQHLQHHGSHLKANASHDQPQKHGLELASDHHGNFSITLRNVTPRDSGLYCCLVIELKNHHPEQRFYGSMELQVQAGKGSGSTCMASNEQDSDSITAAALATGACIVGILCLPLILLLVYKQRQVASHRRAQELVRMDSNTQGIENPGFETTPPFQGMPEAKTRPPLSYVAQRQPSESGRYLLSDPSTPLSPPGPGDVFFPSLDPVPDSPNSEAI
Test: Cell-Based Binding High-Content Assay For mVISTA (HC CBA mVISTA)
Procedure, shortened: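 mVISTA-293T, 4,000 cells/well; cpd ± washout step; biotin-peptide 2 nM final, 30 min RT; SA-Alexa 647 30 min; formaldehyde/Hoechst fix; HCS imaging; 4PL IC50.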

Row | Compound | IC50 (read-out: HC CBA mVISTA IC50) [nM] | IC50 (cell-based binding high-content assay, mVISTA, read-out: HC CBA miPr ISTA IC50) [nM]
1 | CCCCCCN1CC(=O)N[C@@H](Cc2ccc(O)cc2)C(=O)N[C@@H](CCCC)C(=O)N[C@@H](CC(N)=O)C(=O)N[C@@H](CCCNC(=N)N)C(=O)N2Cc3ccccc3C[C@H]2C(=O)N[C@@H](CCCCC)C(=O)N2CCC[C@H]2C(=O)N[C@@H](C(C)C)C(=O)N[C@@H](CO)C(=O)N[C@H](C(=O)N[C@@H](CC(=O)NCCOCCOCC(=O)NCCCCCCCCCCC(=O)O)C(=O)O)CSCC(=O)N[C@@H](Cc2ccccc2)C(=O)N[C@@H](Cc2c[nH]c3ccccc23)C(=O)N[C@@H](CC(=O)O)C1=O [Example 2157] ({CH2CO}-FWD[NHexGly]Y[Nle]NR[Tic][Ahp(2)]PVSC[βAsp][AEEA][Aun]-OH; thioether N-14) | 10.5 | 
2 | CCCCCCN1CC(=O)N[C@@H](Cc2ccc(O)cc2)C(=O)N[C@@H](CCCC)C(=O)N[C@@H](CC(N)=O)C(=O)N[C@@H](CCCNC(N)=O)C(=O)N(C)[C@@H](CCCC)C(=O)N[C@@H](CCCCC)C(=O)N2CC(O)CC2C(=O)N[C@@H](C(C)C)C(=O)N[C@@H](CO)C(=O)N[C@H](C(=O)NCC(N)=O)CSCC(=O)N[C@@H](Cc2ccccc2)C(=O)N[C@@H](Cc2c[nH]c3ccccc23)C(=O)N[C@@H](CC(=O)O)C1=O (stereo partly shown) [compound 1141] ({CH2CO}-FWD[NHexGly]Y[Nle]N[Cit][NMeNle][Ahp(2)][ξHyp]VSCG-NH2; thioether N-14) | 50.3 | 
3 | CCCCCCN1CC(=O)N[C@@H](Cc2ccc(O)cc2)C(=O)N[C@@H](CCCC)C(=O)N[C@@H](CC(N)=O)C(=O)N[C@@H](CCCNC(=N)N)C(=O)N[C@@H](Cc2ccc(OCC(=O)O)cc2)C(=O)N[C@@H](CCCCC)C(=O)N2CCC[C@H]2C(=O)N[C@@H](C(C)C)C(=O)N[C@@H](CO)C(=O)N[C@H](C(=O)N[C@@H](CC(=O)NCCOCCOCC(=O)NCCCCCCCCCCC(=O)O)C(=O)O)CSCC(=O)N[C@@H](Cc2ccccc2)C(=O)N[C@@H](Cc2c[nH]c3ccccc23)C(=O)N[C@@H](CC(=O)O)C1=O [Example 2175] ({CH2CO}-FWD[NHexGly]Y[Nle]NRY(Carboxymethyl)[Ahp(2)]PVSC[βAsp][AEEA][Aun]-OH; thioether N-14) | 35.4 | 
4 | CCCCCCN1CC(=O)N[C@@H](Cc2ccc(O)cc2)C(=O)N[C@@H](CCCC)C(=O)N[C@@H](CC(=O)O)C(=O)N[C@@H](CCCNC(=N)N)C(=O)N[C@@H](CC(C)C)C(=O)N[C@@H](CCCCC)C(=O)N2CCC[C@H]2C(=O)N[C@@H](C(C)C)C(=O)N(C)CC(=O)N[C@H](C(=O)NCC(=O)O)CSCC(=O)N[C@@H](Cc2ccccc2)C(=O)N[C@@H](Cc2ccc(O)cc2)C(=O)N[C@@H](CC(=O)O)C1=O [compound 1114] ({CH2CO}-FYD[NHexGly]Y[Nle]DRL[Ahp(2)]PV[Sar]CG-OH; thioether N-14) | 15.8 | 
5 | CCCCCCN1CC(=O)N[C@@H](Cc2ccc(O)cc2)C(=O)N[C@@H](CCCC)C(=O)N[C@@H](CC(N)=O)C(=O)N[C@@H](CCCNC(=N)N)C(=O)N2Cc3ccccc3C[C@H]2C(=O)N[C@@H](CCCCC)C(=O)N2CCC[C@H]2C(=O)N[C@@H](C(C)C)C(=O)N[C@@H](CC(=O)O)C(=O)N[C@H](C(=O)N[C@@H](CC(=O)NCCOCCOCC(=O)NCCCCCCCCCCC(=O)O)C(=O)O)CSCC(=O)N[C@@H](Cc2ccc3ccccc3c2)C(=O)N[C@@H](Cc2ccc(O)cc2)C(=O)N[C@@H](CC(=O)O)C1=O [Example 2145] ({CH2CO}-[2Nal]YD[NHexGly]Y[Nle]NR[Tic][Ahp(2)]PVDC[βAsp][AEEA][Aun]-OH; thioether N-14) | 16.8 | 
6 | CCCCCCN1CC(=O)N[C@@H](Cc2ccc(O)cc2)C(=O)N[C@@H](CCCC)C(=O)N[C@@H](CC(N)=O)C(=O)N[C@@H](CCCNC(=N)N)C(=O)N(C)[C@@H](CCCC)C(=O)N[C@@H](CCCCC)C(=O)N2CCC[C@H]2C(=O)N[C@@H](C(C)C)C(=O)N[C@@H](CC(=O)O)C(=O)N[C@H](C(=O)N[C@@H](CCCCN)C(=O)N[C@@H](CCC(N)=O)C(=O)O)CSCC(=O)N[C@@H](Cc2ccccc2)C(=O)N[C@@H](Cc2c[nH]c3ccccc23)C(=O)N[C@@H](CC(=O)O)C1=O [compound 1127] ({CH2CO}-FWD[NHexGly]Y[Nle]NR[NMeNle][Ahp(2)]PVDCKQ-OH; thioether N-14) | 23 | 
7 | CCCCCCN1CC(=O)N[C@@H](Cc2ccc(O)cc2)C(=O)N[C@@H](CCCC)C(=O)N[C@@H](CC(N)=O)C(=O)N[C@@H](CCCNC(=N)N)C(=O)N2Cc3ccccc3C[C@H]2C(=O)N[C@@H](CCCCC)C(=O)N2CCC[C@H]2C(=O)N[C@@H](C(C)C)C(=O)N[C@@H](CO)C(=O)N[C@H](C(=O)N[C@@H](CC(=O)NCCOCCOCC(=O)NCCCCCCCCCCC(=O)O)C(=O)O)CSCC(=O)N[C@@H](Cc2ccc3ccccc3c2)C(=O)N[C@@H](Cc2ccc(O)cc2)C(=O)N[C@@H](CC(=O)O)C1=O [Example 2160] ({CH2CO}-[2Nal]YD[NHexGly]Y[Nle]NR[Tic][Ahp(2)]PVSC[βAsp][AEEA][Aun]-OH; thioether N-14) | 37.8 | 
8 | CCCCCCN1CC(=O)N[C@@H](Cc2ccc(O)cc2)C(=O)N[C@@H](CCCC)C(=O)N[C@@H](CC(N)=O)C(=O)N[C@@H](CCCNC(=N)N)C(=O)N(C)[C@@H](CC(C)C)C(=O)N[C@@H](CCCCC)C(=O)N2CCC[C@H]2C(=O)N[C@@H](C(C)C)C(=O)N[C@@H](CC(=O)O)C(=O)N[C@H](C(=O)N[C@@H](CC(=O)NCCOCCOCC(=O)NCCCCCCCCCCC(=O)O)C(=O)O)CSCC(=O)N[C@@H](Cc2ccc3ccccc3c2)C(=O)N[C@@H](Cc2ccc(O)cc2)C(=O)N[C@@H](CC(=O)O)C1=O [Example 2150] ({CH2CO}-[2Nal]YD[NHexGly]Y[Nle]NR[NMeL][Ahp(2)]PVDC[βAsp][AEEA][Aun]-OH; thioether N-14) | 10.7 | 

Second part, the molecule after the results:

Row | IC50 (read-out: HC CBA mVISTA IC50) [nM] | IC50 (cell-based binding high-content assay, mVISTA, read-out: HC CBA miPr ISTA IC50) [nM] | Compound
9 | 28.4 |  | CCCCCCN1CC(=O)N[C@@H](Cc2ccc(O)cc2)C(=O)N[C@@H](CCCCC)C(=O)NCC(=O)N[C@@H](CCCNC(=N)N)C(=O)N[C@@H](CC(C)C)C(=O)N[C@@H](CCCCC)C(=O)N2CCC[C@H]2C(=O)N[C@@H](C(C)C)C(=O)N[C@@H](CO)C(=O)N[C@H](C(=O)NCC(=O)N[C@@H](CCC(=O)NCCOCCOCC(=O)N[C@@H](CC(=O)O)C(=O)NCCOCCOCC(=O)NCCCCCCCCCCC(=O)O)C(=O)O)CSCC(=O)N[C@@H](Cc2ccccc2)C(=O)N[C@@H](Cc2ccc(O)cc2)C(=O)N[C@@H](CC(=O)O)C1=O [compound 2121] ({CH2CO}-FYD[NHexGly]Y[Ahp(2)]GRL[Ahp(2)]PVSCG[γGlu][AEEA]D[AEEA][Aun]-OH; thioether N-14)
10 | 13.9 |  | CCCCCCN1CC(=O)N[C@@H](Cc2ccc(O)cc2)C(=O)N[C@@H](CCCC)C(=O)N[C@@H](CC(N)=O)C(=O)N[C@@H](CCCNC(=N)N)C(=O)N(C)[C@@H](CCCC)C(=O)N[C@@H](CCCCC)C(=O)N2CCC[C@H]2C(=O)N[C@@H](C(C)(C)C)C(=O)N[C@@H](CO)C(=O)N[C@H](C(=O)NCC(=O)N[C@@H](CC(=O)NCCOCCOCC(=O)N[C@@H](CC(=O)O)C(=O)NCCOCCOCC(=O)NCCCCCCCCCCC(=O)O)C(=O)O)CSCC(=O)N[C@@H](Cc2ccccc2)C(=O)N[C@@H](Cc2ccc(O)cc2)C(=O)N[C@@H](CC(=O)O)C1=O [compound 2111] ({CH2CO}-FYD[NHexGly]Y[Nle]NR[NMeNle][Ahp(2)]P[Tle]SCG[βAsp][AEEA]D[AEEA][Aun]-OH; thioether N-14)
11 | 23.9 |  | CCCCCCN1CC(=O)N[C@@H](Cc2ccc(O)cc2)C(=O)N[C@@H](CC(C)C)C(=O)N[C@@H](CC(N)=O)C(=O)N[C@@H](CCCN)C(=O)N(C)[C@@H](CCCC)C(=O)N[C@@H](CCCCC)C(=O)N2CCC[C@H]2C(=O)N[C@@H](C(C)(C)C)C(=O)N[C@@H](CC(=O)O)C(=O)N[C@H](C(=O)NCCOCCOCC(=O)N[C@@H](CCC(=O)NCCOCCOCC(=O)NCCCCCCCCCCC(=O)O)C(=O)O)CSCC(=O)N[C@@H](Cc2ccccc2)C(=O)N[C@@H](Cc2ccc(O)cc2)C(=O)N[C@@H](CC(=O)O)C1=O [compound 2284] ({CH2CO}-FYD[NHexGly]YLN[Orn][NMeNle][Ahp(2)]P[Tle]DC[AEEA][γGlu][AEEA][Aun]-OH; thioether N-14)
12 | 9.5 |  | CCCCCCN1CC(=O)N[C@@H](Cc2ccc(O)cc2)C(=O)N[C@@H](CCCC)C(=O)N[C@@H](CC(=O)O)C(=O)N[C@@H](CCCNC(=N)N)C(=O)N[C@@H](CC(C)C)C(=O)N[C@@H](CCCCC)C(=O)N2CCC[C@H]2C(=O)N[C@@H](C(C)C)C(=O)N[C@@H](CC(N)=O)C(=O)N[C@H](C(=O)NCCOCCOCC(=O)N[C@@H](CC(=O)NCCOCCOCC(=O)NCCCCCCCCCCC(=O)O)C(=O)O)CSCC(=O)N[C@@H](Cc2ccccc2)C(=O)N[C@@H](Cc2ccc(O)cc2)C(=O)N[C@@H](CC(=O)O)C1=O [Example 2202] ({CH2CO}-FYD[NHexGly]Y[Nle]DRL[Ahp(2)]PVNC[AEEA][βAsp][AEEA][Aun]-OH; thioether N-14)
13 |  | 39.9 | CCCCCCN1CC(=O)N[C@@H](Cc2ccc(O)cc2)C(=O)N[C@@H](CC2CC2)C(=O)N[C@@H](CC(N)=O)C(=O)N[C@@H](CCCNC(=N)N)C(=O)N(C)[C@@H](CCCC)C(=O)N[C@@H](CCCCC)C(=O)N2CCC[C@H]2C(=O)N[C@@H](C(C)(C)C)C(=O)N[C@@H](CO)C(=O)N[C@H](C(=O)N[C@@H](CC(=O)NCCOCCOCC(=O)N[C@@H](CC(=O)O)C(=O)NCCOCCOCC(=O)NCCCCCCCCCCC(=O)O)C(=O)O)CSCC(=O)N[C@@H](Cc2ccccc2)C(=O)N[C@@H](Cc2ccc(O)cc2)C(=O)N[C@@H](CC(=O)O)C1=O [compound 2063] ({CH2CO}-FYD[NHexGly]Y[Ala(cPr)]NR[NMeNle][Ahp(2)]P[Tle]SC[βAsp][AEEA]D[AEEA][Aun]-OH; thioether N-14)
